Test results from patent publication EP2703005A1, “Inhibitors of alpha6 Integrin/E-Cadherin Complex” (Università Degli Studi Di Torino, priority 2012, dated 2014).
These are yes or no findings as the source states them, for the method shown. Binding seen in cells or lysates may run through a third protein. Some binding calls cover weakened binding; strength is not graded here. Sequences can lack the tags named with a protein.

Amino acid sequences for entries named in this document (tags omitted). A change or cut given only in a name is not applied to a line headed by its entry. Residues count along the entry.
UniProt P09874, residues 2-1014: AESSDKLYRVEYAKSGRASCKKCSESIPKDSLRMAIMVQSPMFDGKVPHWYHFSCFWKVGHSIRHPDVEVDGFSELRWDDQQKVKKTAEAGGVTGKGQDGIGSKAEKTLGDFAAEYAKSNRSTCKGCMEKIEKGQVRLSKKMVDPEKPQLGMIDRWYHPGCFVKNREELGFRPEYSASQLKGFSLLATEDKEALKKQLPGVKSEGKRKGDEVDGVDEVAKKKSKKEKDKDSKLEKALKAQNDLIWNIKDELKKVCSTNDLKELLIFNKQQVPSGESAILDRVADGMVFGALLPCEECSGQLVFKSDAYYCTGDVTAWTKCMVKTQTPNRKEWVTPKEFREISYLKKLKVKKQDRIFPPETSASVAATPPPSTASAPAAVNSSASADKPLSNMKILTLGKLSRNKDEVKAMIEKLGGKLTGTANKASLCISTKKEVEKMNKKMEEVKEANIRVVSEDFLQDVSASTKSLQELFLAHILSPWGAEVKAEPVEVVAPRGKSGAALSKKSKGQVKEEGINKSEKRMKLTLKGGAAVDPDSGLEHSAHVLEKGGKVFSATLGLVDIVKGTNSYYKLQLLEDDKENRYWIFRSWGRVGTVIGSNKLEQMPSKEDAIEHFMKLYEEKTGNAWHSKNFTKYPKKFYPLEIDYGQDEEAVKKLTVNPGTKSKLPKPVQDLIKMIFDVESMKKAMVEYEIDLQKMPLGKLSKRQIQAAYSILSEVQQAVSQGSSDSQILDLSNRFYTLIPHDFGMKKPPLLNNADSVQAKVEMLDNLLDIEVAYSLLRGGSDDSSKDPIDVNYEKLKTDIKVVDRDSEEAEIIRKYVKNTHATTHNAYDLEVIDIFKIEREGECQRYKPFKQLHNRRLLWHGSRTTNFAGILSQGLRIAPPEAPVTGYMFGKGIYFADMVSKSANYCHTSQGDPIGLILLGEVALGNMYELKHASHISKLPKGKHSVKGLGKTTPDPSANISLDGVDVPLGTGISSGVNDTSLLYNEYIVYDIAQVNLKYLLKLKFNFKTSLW
UniProt Q00839, residues 2-825: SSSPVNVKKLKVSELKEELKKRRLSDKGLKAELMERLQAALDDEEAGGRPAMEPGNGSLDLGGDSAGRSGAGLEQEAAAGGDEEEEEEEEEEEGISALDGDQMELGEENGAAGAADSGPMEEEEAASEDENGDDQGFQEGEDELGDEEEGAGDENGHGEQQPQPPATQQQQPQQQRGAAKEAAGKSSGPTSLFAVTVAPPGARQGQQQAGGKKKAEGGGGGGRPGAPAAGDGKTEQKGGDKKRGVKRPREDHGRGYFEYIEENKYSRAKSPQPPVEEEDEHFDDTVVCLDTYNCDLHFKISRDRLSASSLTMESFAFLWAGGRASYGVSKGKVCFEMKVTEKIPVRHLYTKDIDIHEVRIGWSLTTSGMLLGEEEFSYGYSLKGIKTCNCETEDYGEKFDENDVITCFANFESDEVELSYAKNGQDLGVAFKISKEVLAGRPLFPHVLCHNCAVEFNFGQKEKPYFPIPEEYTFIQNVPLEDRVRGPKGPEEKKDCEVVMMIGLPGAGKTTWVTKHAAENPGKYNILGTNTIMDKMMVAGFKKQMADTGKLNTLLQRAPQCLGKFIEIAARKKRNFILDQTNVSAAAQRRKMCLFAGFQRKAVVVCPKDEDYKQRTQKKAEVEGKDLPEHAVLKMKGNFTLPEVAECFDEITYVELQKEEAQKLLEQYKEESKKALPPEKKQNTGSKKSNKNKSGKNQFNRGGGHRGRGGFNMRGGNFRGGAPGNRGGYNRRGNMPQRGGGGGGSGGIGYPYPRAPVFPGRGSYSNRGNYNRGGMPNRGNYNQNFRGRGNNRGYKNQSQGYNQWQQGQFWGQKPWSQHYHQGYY
UniProt P12830: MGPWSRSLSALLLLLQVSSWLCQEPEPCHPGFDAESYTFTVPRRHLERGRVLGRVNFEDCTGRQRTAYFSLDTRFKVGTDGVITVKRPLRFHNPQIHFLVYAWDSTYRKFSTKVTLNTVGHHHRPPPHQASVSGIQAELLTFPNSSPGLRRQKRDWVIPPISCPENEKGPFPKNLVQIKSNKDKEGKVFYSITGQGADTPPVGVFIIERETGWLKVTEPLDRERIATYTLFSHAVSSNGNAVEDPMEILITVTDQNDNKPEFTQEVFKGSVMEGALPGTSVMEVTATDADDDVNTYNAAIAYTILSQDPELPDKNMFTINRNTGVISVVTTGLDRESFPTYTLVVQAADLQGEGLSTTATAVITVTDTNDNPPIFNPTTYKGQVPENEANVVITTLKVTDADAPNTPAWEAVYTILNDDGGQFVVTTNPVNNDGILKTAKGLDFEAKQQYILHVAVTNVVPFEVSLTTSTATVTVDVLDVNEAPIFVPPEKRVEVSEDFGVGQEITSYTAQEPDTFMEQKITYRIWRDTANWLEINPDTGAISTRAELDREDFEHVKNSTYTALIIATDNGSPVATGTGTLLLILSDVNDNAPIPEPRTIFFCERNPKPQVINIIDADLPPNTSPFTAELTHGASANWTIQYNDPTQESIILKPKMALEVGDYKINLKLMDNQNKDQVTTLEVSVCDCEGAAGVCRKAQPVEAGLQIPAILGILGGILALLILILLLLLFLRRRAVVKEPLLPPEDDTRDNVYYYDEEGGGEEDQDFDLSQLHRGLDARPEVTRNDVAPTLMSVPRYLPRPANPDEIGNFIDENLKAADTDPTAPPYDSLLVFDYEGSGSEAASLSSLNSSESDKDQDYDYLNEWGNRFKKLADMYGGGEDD
UniProt P25705, residues 44-553: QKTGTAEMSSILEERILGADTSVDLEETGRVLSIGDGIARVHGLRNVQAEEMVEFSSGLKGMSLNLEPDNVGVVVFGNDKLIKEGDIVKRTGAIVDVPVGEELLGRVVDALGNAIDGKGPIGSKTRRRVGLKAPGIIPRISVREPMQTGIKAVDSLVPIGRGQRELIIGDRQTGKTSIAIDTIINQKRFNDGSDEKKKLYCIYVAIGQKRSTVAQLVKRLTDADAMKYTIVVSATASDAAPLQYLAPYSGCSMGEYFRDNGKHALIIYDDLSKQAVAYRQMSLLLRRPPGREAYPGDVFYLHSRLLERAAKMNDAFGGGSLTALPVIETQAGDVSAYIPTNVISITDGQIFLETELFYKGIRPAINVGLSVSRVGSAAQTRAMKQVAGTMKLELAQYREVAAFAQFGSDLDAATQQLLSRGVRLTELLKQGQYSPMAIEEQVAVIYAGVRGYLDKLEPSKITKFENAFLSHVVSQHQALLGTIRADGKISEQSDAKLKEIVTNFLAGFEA
UniProt P35580: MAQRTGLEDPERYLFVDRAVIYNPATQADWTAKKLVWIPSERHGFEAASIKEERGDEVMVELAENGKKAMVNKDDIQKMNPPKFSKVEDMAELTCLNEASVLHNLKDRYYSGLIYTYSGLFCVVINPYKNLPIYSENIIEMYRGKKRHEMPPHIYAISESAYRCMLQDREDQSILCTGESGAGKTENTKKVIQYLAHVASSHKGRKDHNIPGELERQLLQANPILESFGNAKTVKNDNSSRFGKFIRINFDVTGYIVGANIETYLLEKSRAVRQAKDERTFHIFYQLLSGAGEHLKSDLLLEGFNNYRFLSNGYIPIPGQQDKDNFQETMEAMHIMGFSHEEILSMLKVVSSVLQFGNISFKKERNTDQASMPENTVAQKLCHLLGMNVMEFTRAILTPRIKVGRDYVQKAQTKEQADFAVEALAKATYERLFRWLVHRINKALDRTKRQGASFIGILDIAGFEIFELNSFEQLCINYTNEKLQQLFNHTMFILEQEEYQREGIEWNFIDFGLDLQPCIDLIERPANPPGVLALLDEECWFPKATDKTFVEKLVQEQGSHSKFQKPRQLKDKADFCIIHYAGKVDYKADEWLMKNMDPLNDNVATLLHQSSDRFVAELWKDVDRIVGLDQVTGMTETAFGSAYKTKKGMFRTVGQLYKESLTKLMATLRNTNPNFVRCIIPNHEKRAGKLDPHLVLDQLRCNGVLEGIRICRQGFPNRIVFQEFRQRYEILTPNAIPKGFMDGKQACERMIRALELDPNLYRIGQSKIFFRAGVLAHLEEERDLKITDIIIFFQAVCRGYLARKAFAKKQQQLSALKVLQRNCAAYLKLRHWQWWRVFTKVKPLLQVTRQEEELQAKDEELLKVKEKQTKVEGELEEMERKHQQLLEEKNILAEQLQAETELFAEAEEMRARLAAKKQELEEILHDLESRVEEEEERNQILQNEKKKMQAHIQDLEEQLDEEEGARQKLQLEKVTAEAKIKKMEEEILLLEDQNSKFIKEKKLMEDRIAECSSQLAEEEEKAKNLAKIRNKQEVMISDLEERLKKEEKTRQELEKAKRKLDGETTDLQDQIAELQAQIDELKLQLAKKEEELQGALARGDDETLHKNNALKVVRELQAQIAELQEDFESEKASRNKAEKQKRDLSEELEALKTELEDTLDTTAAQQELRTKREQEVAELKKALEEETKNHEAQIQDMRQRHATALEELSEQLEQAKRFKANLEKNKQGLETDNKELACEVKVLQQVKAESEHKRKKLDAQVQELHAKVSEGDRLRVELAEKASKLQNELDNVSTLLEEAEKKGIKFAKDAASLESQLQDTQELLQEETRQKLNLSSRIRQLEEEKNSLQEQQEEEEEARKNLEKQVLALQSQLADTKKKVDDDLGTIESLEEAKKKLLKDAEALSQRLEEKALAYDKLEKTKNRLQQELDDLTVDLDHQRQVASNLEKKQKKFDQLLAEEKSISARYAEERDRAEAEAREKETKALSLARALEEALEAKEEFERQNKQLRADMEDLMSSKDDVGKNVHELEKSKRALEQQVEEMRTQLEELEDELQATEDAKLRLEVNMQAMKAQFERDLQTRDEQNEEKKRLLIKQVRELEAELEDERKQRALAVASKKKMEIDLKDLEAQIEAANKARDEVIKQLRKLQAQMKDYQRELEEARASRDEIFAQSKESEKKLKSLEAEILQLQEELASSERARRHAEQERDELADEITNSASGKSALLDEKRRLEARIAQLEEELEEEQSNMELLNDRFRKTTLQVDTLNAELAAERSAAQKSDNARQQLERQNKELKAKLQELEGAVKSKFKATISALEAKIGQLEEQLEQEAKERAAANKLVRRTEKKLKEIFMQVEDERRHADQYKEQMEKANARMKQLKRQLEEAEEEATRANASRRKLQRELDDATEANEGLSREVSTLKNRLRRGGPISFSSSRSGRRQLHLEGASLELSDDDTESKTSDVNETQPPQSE
UniProt P06753, residues 2-285: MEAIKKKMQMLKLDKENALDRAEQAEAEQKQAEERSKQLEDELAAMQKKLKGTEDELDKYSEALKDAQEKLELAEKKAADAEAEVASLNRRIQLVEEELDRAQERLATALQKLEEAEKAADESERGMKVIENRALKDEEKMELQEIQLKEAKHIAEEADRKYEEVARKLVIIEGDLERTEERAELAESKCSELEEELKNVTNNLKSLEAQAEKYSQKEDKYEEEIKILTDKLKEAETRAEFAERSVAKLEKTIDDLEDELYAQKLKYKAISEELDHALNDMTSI
UniProt P07355, residues 2-339: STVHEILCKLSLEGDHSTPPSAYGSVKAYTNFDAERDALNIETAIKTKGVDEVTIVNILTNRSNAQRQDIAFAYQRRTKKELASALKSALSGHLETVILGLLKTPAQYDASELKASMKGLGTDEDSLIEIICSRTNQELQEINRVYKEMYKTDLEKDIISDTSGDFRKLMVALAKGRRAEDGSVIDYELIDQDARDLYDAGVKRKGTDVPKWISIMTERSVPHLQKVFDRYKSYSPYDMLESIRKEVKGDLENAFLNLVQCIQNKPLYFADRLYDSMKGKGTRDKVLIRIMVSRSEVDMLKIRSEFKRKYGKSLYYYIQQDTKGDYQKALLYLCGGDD
UniProt P08238, residues 2-724: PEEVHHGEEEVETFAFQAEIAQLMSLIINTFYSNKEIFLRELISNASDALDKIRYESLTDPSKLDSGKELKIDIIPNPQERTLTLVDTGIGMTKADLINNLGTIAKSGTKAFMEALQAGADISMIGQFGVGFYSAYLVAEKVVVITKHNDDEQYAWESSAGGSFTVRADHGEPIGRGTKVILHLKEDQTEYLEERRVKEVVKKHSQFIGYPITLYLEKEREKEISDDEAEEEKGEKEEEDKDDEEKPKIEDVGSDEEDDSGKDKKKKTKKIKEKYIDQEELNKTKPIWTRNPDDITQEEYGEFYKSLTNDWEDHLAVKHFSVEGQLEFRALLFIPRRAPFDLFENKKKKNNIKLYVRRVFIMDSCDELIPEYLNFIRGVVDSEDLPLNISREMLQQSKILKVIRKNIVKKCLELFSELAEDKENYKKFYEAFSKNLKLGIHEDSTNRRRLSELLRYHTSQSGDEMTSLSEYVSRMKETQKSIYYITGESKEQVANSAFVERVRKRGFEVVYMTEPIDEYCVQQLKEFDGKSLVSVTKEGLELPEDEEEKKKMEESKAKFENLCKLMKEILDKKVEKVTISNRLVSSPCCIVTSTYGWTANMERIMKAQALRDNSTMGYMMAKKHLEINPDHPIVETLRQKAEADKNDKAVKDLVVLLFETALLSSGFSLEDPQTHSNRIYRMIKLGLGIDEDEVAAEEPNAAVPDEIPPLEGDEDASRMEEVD

Legend:
[1] = target: T1, stomatin-like protein 2 (human) (UniProt Q9UJZ1); assay: GST pull-down from NCI-H630 lysate (HepG2 lysate as control), LC-MS/MS; MASCOT score 81
T1 sequence (looked up): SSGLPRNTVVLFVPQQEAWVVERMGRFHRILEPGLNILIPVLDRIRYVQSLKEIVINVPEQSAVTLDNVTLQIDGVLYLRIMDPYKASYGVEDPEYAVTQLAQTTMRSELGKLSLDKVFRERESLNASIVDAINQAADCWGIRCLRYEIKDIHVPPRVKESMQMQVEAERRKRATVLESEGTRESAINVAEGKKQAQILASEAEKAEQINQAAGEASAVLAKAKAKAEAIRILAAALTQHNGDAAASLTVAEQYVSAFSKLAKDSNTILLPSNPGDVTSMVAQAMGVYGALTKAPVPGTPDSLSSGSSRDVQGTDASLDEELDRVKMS

[2] = target: poly[ADP-ribose]polymerase (human) (UniProt P09874); assay: GST pull-down from NCI-H630 lysate (HepG2 lysate as control), LC-MS/MS; MASCOT score 106
[3] = target: T2, microsomal dipeptidase (human) (UniProt P16444); assay: GST pull-down from NCI-H630 lysate (HepG2 lysate as control), LC-MS/MS; MASCOT score 117
T2 sequence (looked up): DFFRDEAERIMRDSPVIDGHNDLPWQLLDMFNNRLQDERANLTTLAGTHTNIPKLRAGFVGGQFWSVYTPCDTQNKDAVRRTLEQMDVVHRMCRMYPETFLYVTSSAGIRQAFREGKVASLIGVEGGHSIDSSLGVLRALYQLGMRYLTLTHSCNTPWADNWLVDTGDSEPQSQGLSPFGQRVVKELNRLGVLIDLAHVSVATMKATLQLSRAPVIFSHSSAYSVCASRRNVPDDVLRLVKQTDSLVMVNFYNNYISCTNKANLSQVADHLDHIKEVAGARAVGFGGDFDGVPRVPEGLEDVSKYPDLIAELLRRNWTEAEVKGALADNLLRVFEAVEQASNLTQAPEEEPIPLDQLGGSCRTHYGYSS

[4] = target: hnRNP U (human) (UniProt Q00839); assay: GST pull-down from NCI-H630 lysate (HepG2 lysate as control), LC-MS/MS; MASCOT score 124
[5] = target: E-cadherin (human) (UniProt P12830); assay: GST pull-down from NCI-H630 lysate (HepG2 lysate as control), LC-MS/MS; MASCOT score 173
[6] = target: actin-related protein 2/3 complex sub 1B (human) (UniProt O15143); assay: GST pull-down from NCI-H630 lysate (HepG2 lysate as control), LC-MS/MS; MASCOT score 193
[7] = target: ATP synthase α chain (human) (UniProt P25705); assay: GST pull-down from NCI-H630 lysate (HepG2 lysate as control), LC-MS/MS; MASCOT score 200
[8] = target: myosin-10 (human) (UniProt P35580); assay: GST pull-down from NCI-H630 lysate (HepG2 lysate as control), LC-MS/MS; MASCOT score 235
[9] = target: tropomyosin 3 (human) (UniProt P06753); assay: GST pull-down from NCI-H630 lysate (HepG2 lysate as control), LC-MS/MS; MASCOT score 420
[10] = target: Spectrin alpha chain (human) (UniProt Q13813); assay: GST pull-down from NCI-H630 lysate (HepG2 lysate as control), LC-MS/MS; MASCOT score 790
[11] = target: annexin A2 (human) (UniProt P07355); assay: GST pull-down from NCI-H630 lysate (HepG2 lysate as control), LC-MS/MS; MASCOT score 994
[12] = target: T3, villin-1 (human) (UniProt P09327); assay: GST pull-down from NCI-H630 lysate (HepG2 lysate as control), LC-MS/MS; MASCOT score 1782
T3 sequence (looked up): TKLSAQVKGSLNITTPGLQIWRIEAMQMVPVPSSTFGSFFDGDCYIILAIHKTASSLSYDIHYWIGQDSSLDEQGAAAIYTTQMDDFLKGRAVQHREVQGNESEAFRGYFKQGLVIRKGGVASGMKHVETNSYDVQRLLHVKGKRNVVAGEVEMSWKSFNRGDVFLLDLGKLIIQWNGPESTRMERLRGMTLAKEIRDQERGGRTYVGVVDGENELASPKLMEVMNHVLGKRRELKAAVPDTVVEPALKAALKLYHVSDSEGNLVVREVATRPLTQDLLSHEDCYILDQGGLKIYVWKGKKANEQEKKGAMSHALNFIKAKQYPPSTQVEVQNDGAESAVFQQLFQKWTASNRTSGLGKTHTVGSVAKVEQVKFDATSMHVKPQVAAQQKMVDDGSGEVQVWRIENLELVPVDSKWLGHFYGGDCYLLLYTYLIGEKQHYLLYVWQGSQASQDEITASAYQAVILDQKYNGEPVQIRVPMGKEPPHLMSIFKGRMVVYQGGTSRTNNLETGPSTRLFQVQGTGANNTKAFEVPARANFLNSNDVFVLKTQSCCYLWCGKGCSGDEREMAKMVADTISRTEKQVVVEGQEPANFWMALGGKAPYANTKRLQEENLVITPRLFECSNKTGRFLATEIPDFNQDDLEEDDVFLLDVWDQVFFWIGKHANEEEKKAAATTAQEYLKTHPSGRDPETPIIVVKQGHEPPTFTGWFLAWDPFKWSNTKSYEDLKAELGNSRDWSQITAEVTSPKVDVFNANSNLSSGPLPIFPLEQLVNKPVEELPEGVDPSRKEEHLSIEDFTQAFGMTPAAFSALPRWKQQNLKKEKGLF

[13] = target: spectrin β chain (human) (UniProt Q01082); assay: GST pull-down from NCI-H630 lysate (HepG2 lysate as control), LC-MS/MS; MASCOT score 1989
[14] = target: HSP 90-α (human) (UniProt P07900); assay: GST pull-down from NCI-H630 lysate (HepG2 lysate as control), LC-MS/MS; MASCOT score 125 (one score for HSP 90-α and HSP 90-β)
[15] = target: HSP 90-β (human) (UniProt P08238); assay: as above

Measured: binding

CGIYRLRSC (peptide, not shown: a dimerising Fc or GST) […-GST]
binds: all assays above
